Test results published in article PMC6389929.
These are yes or no findings as the source states them, for the method shown. In cells and extracts the contact can be indirect. These calls come from enrichment with a bait or labelling near it, and not all partners need be listed.

Chains of the proteins cited; added tags and fusions are not shown.
UniProt Q93009: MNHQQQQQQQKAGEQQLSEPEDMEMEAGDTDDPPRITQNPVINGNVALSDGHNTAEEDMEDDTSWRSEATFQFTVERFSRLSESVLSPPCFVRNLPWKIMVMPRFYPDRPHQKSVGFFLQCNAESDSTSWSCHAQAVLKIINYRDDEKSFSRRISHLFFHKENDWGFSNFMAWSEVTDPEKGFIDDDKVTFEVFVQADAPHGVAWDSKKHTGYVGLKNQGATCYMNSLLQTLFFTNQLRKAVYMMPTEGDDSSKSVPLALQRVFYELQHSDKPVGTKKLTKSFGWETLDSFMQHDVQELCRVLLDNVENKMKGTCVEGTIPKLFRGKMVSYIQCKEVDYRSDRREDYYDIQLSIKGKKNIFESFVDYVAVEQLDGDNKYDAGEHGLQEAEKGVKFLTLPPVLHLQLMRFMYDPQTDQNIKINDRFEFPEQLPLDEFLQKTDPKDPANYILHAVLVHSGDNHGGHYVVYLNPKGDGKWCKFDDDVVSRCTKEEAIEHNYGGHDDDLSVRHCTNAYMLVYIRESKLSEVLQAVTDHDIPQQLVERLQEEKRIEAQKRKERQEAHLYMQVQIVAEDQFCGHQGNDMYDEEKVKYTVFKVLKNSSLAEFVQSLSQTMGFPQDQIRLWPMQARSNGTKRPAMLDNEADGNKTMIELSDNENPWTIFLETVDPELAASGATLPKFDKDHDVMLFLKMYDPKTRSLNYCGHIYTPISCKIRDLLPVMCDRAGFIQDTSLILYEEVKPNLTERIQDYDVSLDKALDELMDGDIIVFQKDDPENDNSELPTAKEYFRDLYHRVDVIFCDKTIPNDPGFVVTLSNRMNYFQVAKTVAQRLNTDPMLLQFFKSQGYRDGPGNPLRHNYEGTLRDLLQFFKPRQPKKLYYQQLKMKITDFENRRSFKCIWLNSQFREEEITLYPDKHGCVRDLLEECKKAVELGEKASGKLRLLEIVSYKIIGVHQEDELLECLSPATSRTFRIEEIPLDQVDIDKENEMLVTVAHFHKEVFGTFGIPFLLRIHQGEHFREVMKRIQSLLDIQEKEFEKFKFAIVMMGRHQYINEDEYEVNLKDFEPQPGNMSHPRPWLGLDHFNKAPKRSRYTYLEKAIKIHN
UniProt P49915: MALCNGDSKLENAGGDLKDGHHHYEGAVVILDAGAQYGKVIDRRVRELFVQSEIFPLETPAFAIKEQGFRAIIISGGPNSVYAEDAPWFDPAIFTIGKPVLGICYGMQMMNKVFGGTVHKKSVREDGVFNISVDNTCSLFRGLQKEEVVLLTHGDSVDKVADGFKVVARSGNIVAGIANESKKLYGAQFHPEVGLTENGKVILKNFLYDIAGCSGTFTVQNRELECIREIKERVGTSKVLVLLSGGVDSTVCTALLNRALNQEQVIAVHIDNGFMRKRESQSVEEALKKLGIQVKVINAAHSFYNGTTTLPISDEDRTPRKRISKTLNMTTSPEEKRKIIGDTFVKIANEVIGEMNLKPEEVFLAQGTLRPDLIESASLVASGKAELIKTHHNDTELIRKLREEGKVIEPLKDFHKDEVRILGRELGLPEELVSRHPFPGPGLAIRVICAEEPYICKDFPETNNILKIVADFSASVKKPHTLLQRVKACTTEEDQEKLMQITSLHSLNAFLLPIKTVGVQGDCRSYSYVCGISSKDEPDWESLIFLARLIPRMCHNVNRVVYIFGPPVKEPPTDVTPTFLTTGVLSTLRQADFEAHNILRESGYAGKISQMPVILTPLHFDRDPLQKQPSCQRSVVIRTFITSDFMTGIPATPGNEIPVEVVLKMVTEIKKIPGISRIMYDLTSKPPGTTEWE
UniProt P51784: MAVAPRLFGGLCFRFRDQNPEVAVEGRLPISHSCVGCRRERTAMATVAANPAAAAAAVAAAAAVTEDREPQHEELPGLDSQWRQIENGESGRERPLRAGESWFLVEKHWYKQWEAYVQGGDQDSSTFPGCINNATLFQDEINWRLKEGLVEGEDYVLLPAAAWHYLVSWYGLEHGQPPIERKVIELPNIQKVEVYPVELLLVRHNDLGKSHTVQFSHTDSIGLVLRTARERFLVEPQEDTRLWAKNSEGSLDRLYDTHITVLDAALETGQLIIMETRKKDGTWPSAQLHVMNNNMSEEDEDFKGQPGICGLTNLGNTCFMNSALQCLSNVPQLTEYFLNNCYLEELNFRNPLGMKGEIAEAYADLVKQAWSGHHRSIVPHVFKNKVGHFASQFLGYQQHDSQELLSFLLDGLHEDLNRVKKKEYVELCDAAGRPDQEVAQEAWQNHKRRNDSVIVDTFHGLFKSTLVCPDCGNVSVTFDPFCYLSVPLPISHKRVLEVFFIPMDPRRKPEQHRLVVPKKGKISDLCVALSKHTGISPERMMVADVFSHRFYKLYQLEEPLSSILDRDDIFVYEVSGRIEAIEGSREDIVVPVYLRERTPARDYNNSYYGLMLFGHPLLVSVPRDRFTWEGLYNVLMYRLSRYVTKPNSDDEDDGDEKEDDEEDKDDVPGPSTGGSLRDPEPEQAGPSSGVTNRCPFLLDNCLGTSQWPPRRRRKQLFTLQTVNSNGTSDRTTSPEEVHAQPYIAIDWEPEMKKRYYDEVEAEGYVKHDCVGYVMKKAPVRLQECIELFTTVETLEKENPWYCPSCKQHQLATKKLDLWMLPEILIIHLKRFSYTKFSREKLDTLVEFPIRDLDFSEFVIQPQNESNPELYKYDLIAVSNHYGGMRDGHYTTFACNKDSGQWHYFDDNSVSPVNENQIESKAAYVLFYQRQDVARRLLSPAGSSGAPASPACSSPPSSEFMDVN

B1: Lamina-associated polypeptide TMPO (protein, UniProt P42166 1-694)
chain: MPEFLEDPSVLTKDKLKSELVANNVTLPAGEQRKDVYVQLYLQHLTARNRPPLPAGTNSKGPPDFSSDEEREPTPVLGSGAAAAGRSRAAVGRKATKKTDKPRQEDKDDLDVTELTNEDLLDQLVKYGVNPGPIVGTTRKLYEKKLLKLREQGTESRSSTPLPTISSSAENTRQNGSNDSDRYSDNEEGKKKEHKKVKSTRDIVPFSELGTTPSGGGFFQGISFPEISTRPPLGSTELQAAKKVHTSKGDLPREPLVATNLPGRGQLQKLASERNLFISCKSSHDRCLEKSSSSSSQPEHSAMLVSTAASPSLIKETTTGYYKDIVENICGREKSGIQPLCPERSHISDQSPLSSKRKALEESESSQLISPPLAQAIRDYVNSLLVQGGVGSLPGTSNSMPPLDVENIQKRIDQSKFQETEFLSPPRKVPRLSEKSVEERDSGSFVAFQNIPGSELMSSFAKTVVSHSLTTLGLEVAKQSQHDKIDASELSFPFHESILKVIEEEWQQVDRQLPSLACKYPVSSREATQILSVPKVDDEILGFISEATPLGGIQAASTESCNQQLDLALCRAYEAAASALQIATHTAFVAKAMQADISQAAQILSSDPSRTHQALGILSKTYDAASYICEAAFDEVKMAAHTMGNATVGRRYLWLKDCKINLASKNKLASTPFKGGTLFGGEVCKVIKKRGNKH
B2: ATM-dependant phosphatase PPM1G (protein, UniProt O15355 1-546)
chain: MGAYLSQPNTVKCSGDGVGAPRLPLPYGFSAMQGWRVSMEDAHNCIPELDSETAMFSVYDGHGGEEVALYCAKYLPDIIKDQKAYKEGKLQKALEDAFLAIDAKLTTEEVIKELAQIAGRPTEDEDEKEKVADEDDVDNEEAALLHEEATMTIEELLTRYGQNCHKGPPHSKSGGGTGEEPGSQGLNGEAGPEDSTRETPSQENGPTAKAYTGFSSNSERGTEAGQVGEPGIPTGEAGPSCSSASDKLPRVAKSKFFEDSEDESDEAEEEEEDSEECSEEEDGYSSEEAENEEDEDDTEEAEEDDEEEEEEMMVPGMEGKEEPGSDSGTTAVVALIRGKQLIVANAGDSRCVVSEAGKALDMSYDHKPEDEVELARIKNAGGKVTMDGRVNGGLNLSRAIGDHFYKRNKNLPPEEQMISALPDIKVLTLTDDHEFMVIACDGIWNVMSSQEVVDFIQSKISQRDENGELRLLSSIVEELLDQCLAPDTSGDGTGCDNMTCIIICFKPRNTAELQPESGKRKLEEVLSTEGAEENGNSDKKKKAKRD
B3: F-box protein FBXO38 (endogenous) (protein, UniProt Q6PIJ6 1-1188)
chain: MGPRKKSVKTCIMNNEIPEEMTADETKDYMNQLSHEVLCHIFRYLPLQDIMCMECLSRKLKEAVTLYLRVVRVVDLCAGRWWEYMPSGFTDASFLTLLKKMPDVEQLYGLHPRYLERRRVRGHEAFSIPGVLEALQACPNLVGVETSHLELVESIWTYMPHVHILGKFRNRNGAFPIPPENKLKIPIGAKIQTLHLVGVNVPEIPCIPMLRHLYMKWVRLTKPQPFKDFLCISLRTFVMRNCAGPTNSLKYVPLVTGLASARNLEHLEMVRVPFLGGLIQHVVEDSWRSGGFRNLHTIVLGACKNALEVDLGYLIITAARRLHEVRIQPSLTKDGVFSALKMAELEFPQFETLHLGYVDEFLLQSRMANADLVKYGLADVVENPGIITDIGMKAVNEVFSCIKYLAIYNCPHLHNPYNWISDHSRWTRLVDINLVRCHALKLDSFGQFIELLPSLEFISLDQMFREPPKGCARVGLSAGTGIGVSSALVSNQNSNNDDNNAQNNNANIHDNNHHHPDDSDEENDFRQDLQPGEQQFAADALNEMEDIVQEDGEVVAESGNNTPAHSQAIIPVDVDEEQAGPSGLQRVVKPTSITVHDSESDDEEDSLELQEVWIPKNGTRRYSEREEKTGESVQSRELSVSGKGKTPLRKRYNSHQMGQSKQFPLEESSCEKGCQVTSEQIKADMKAARDIPEKKKNKDVYPSCSSTTASTVGNSSSHNTASQSPDFVRTVNSGGSSEPSPTEVDVSRQCACSPGGSEDSEAMEEGDAESSVCPRCCCHRPQESQRRTSRCSDEERPSTSRACVVNGPDGTRSAFSFRTLPQGGSSGPAHDERTNGSGSGATGEDRRGSSQPESCDVQSNEDYPRRPLTRARSRLSHVLLVSESEVAKTKPRHAMKRKRTADKSTSTSDPVIEDDHVQVLVLKSKNLVGVTMTNCGITDLVLKDCPKMMFIHATRCRVLKHLKVENAPIVNRFDYAQCKKLNMDQVLDQILRMPPERNRIIYLRPMQQVDTLTLEQKLFSGPYPYHICIIHEFSNPPNVRNKVRIRSWMDTIANINQELIKYEFFPEATRSEEDLKKYPKYPWGREIYTLEGVVDGAPYSMISDFPWLRSLRAAEPNSFARYDFEDDEESTIYAPRRKGQLSADICMETIGEEISEMRQMKKGVFQRVVAIFIHYCDVNGEPVEDDYI
B4: DEAD-box helicase DDX24 (protein, UniProt Q9GZR7 1-859)
chain: MKLKDTKSRPKQSSCGKFQTKGIKVVGKWKEVKIDPNMFADGQMDDLVCFEELTDYQLVSPAKNPSSLFSKEAPKRKAQAVSEEEEEEEGKSSSPKKKIKLKKSKNVATEGTSTQKEFEVKDPELEAQGDDMVCDDPEAGEMTSENLVQTAPKKKKNKGKKGLEPSQSTAAKVPKKAKTWIPEVHDQKADVSAWKDLFVPRPVLRALSFLGFSAPTPIQALTLAPAIRDKLDILGAAETGSGKTLAFAIPMIHAVLQWQKRNAAPPPSNTEAPPGETRTEAGAETRSPGKAEAESDALPDDTVIESEALPSDIAAEARAKTGGTVSDQALLFGDDDAGEGPSSLIREKPVPKQNENEEENLDKEQTGNLKQELDDKSATCKAYPKRPLLGLVLTPTRELAVQVKQHIDAVARFTGIKTAILVGGMSTQKQQRMLNRRPEIVVATPGRLWELIKEKHYHLRNLRQLRCLVVDEADRMVEKGHFAELSQLLEMLNDSQYNPKRQTLVFSATLTLVHQAPARILHKKHTKKMDKTAKLDLLMQKIGMRGKPKVIDLTRNEATVETLTETKIHCETDEKDFYLYYFLMQYPGRSLVFANSISCIKRLSGLLKVLDIMPLTLHACMHQKQRLRNLEQFARLEDCVLLATDVAARGLDIPKVQHVIHYQVPRTSEIYVHRSGRTARATNEGLSLMLIGPEDVINFKKIYKTLKKDEDIPLFPVQTKYMDVVKERIRLARQIEKSEYRNFQACLHNSWIEQAAAALEIELEEDMYKGGKADQQEERRRQKQMKVLKKELRHLLSQPLFTESQKTKYPTQSGKPPLLVSAPSKSESALSCLSKQKKKKTKKPKEPQPEQPQPSTSAN
B5: Peptidylprolyl Isomerase PPIL4 (protein, UniProt Q8WUA2 1-492)
chain: MAVLLETTLGDVVIDLYTEERPRACLNFLKLCKIKYYNYCLIHNVQRDFIIQTGDPTGTGRGGESIFGQLYGDQASFFEAEKVPRIKHKKKGTVSMVNNGSDQHGSQFLITTGENLDYLDGVHTVFGEVTEGMDIIKKINETFVDKDFVPYQDIRINHTVILDDPFDDPPDLLIPDRSPEPTREQLDSGRIGADEEIDDFKGRSAEEVEEIKAEKEAKTQAILLEMVGDLPDADIKPPENVLFVCKLNPVTTDEDLEIIFSRFGPIRSCEVIRDWKTGESLCYAFIEFEKEEDCEKAFFKMDNVLIDDRRIHVDFSQSVAKVKWKGKGGKYTKSDFKEYEKEQDKPPNLVLKDKVKPKQDTKYDLILDEQAEDSKSSHSHTSKKHKKKTHHCSEEKEDEDYMPIKNTNQDIYREMGFGHYEEEESCWEKQKSEKRDRTQNRSRSRSRERDGHYSNSHKSKYQTDLYERERSKKRDRSRSPKKSKDKEKSKYR

Target: FLAG-tagged USP7 (USP7 with C-terminal sequential peptide affinity (SPA) tag) (UniProt Q93009)
Assay: affinity purification with mass spectrometry; USP7 with C-terminal SPA tag delivered by adenovirus to AGS cells; high salt extraction, dialysed to 0.1 M potassium acetate; anti-FLAG M2 resin 4 hours at 4 °C; LC-MS/MS; FLAG-β-gal as negative control

Molecule | binding
GMP synthetase (GMPS) (from UniProt P49915 1-693) | binds
deubiquitylating enzyme USP11 (from UniProt P51784 1-963) | binds
B1 | binds
B2 | binds
B3 | binds
B4 | binds
B5 | binds
